In PMC11399425, “Tricyclic and tetracyclic antidepressants upregulate VMAT2 activity and rescue disease-causing VMAT2 variants” (Neuropsychopharmacology, 2024):

Columns and labels:
[1] = target: T1, VMAT2 (Mus musculus, UniProt Q8BRU6); test: FFN206 uptake inhibition assay (30-min treatment) in HEK-VMAT2 cells
[2] = target: T1, VMAT2; test: FFN206 uptake upregulation assay (18-h treatment, washout) in HEK-VMAT2 cells; format: cell-based; set-up: The full-length mouse and human SLC18A2 cDNAs encoding VMAT2 were cloned into pcDNA3.1 vectors; expressed in transfected cells; conditions: 18 h treatment followed by washout, read-out: EC50 (95% CI), VMAT2 upregulation

| IC50 [1] [µM] | EC50 [2] [µM] | Structure (SMILES) |
| --- | --- | --- |
| 7.79 | 18.5 | Clc1ccc2c(c1)C(N1CCNCC1)=Nc1ccccc1O2 [AMO, Amoxapine] |
| 30.5 | 42.4 | CN(C)CCC=C1c2ccccc2COc2ccccc21 [DOX, Doxepin] |
